Results reported in EP4722249A1 (AIMED BIO INC., dated 2026).
Results are given in words; binding and its absence hold for the method and conditions named. Binding can be weak; no strength is given.

Molecular target: monkey CD200R1 (monkey)
Assay: ELISA

Row | binding | Binder
1 | binds | P001009v1 (antibody, V domains shown) VH: EVQLLESGGGLVQPGGSLRLSCAASGFTFSSYDMSWVRQAPGKGLEWVSWISHGGGSIYYADSVKGRFTISRDNSKNTLYLQMNSLRAEDTAVYYCARDAPAYSAPLFDYWGQGTLVTVSS VL: QSVLTQPPSASGTPGQRVTISCSGSSSNIGNNAVNWYQQLPGTAPKLLIYYDKNRPSGVPDRFSGSKSGTSASLAISGLRSEDEADYYCAAWDDRLSGYVFGGGTKLTVL
2 | binds | P001009v2 (antibody, V domains shown) VH: EVQLLESGGGLVQPGGSLRLSCAASGFTFSSYDMSWVRQAPGKGLEWVSWISHGGGSIYYADSVKGRFTISRDNSKNTLYLQMNSLRAEDTAVYYCARDAPAYSAPLFDYWGQGTLVTVSS VL: QSVLTQPPSASGTPGQRVTISCSGSSSNIGNNAVNWYQQLPGTAPKLLIYYDKNRPSGVPDRFSGSKSGTSASLAISGLRSEDEADYYCAAWDRSLSGYVFGGGTKLTVL
